Values quoted from earlier work, collected in patent publication US7901667B2, “Bridgehead labelled compounds and methods of using the same” (Mallinckrodt Inc., priority 2005, dated 2011).
For at least one compound, name, drawing or mass did not settle the structure.

Conditions: cited from earlier work

In the case of `COc1ccccc1N1CCN(CCN(C(=O)c2ccc(F)cc2)c2ccccn2)CC1` [MPPF], the metabolism is listed as “rapidly metabolized”.
